Taken from: PubChem BioAssay AID1508588 (Peter MacCallum Cancer Centre, 2020)

Test: 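Genome-wide search for knock-downs that heighten vemurafenib action in melanoma cells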 (primary screen)
Cell system: human WM266.4 melanoma cells (BRAF V600 mutant)
Reagents: siRNA pool against human genes, 40 nM
Time to read-out: 96 h from transfection to read-out
Conditions: vemurafenib 300 nM (about IC25), added 48 h after transfection, for 48 h; comparison arm got DMSO vehicle only
Read-out: 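Cell gain (DAPI nuclei at end minus before drug, mean of two replicates) and medium lactate by absorbance per cell, both as ratio to non-targeting siRNA, also grouped into fold-change classes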
Scale: cell gain with vemurafenib: higher = more cell gain than with non-targeting siRNA; lactate per cell with vemurafenib: higher = more lactate made per cell
Active means: 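Enhancement is called by pairing each knock-down's vehicle-arm and drug-arm fold-change classes for viability or glycolysis; which class combinations qualify is not given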
Meaning of the calls: active = enhances vemurafenib effect; inactive = no enhancement seen
The whole screen tested about 18,000 reagents; shown is an unselected part. 790 of them (4.4%) were called active. 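Calls rest on a combination of fold-change classes in drug and vehicle arms, not all shown here.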

ST8SIA4
- cell gain with vemurafenib: 0.72
- lactate per cell with vemurafenib: 0.96
- call: inactive

LCN10
- cell gain with vemurafenib: 0.51
- lactate per cell with vemurafenib: 2.16
- call: inactive

DCAF8L1
- cell gain with vemurafenib: 0.41
- lactate per cell with vemurafenib: 0.86
- call: inactive

MYL3
- cell gain with vemurafenib: 0.47
- lactate per cell with vemurafenib: 1.79
- call: inactive

IGFBP2
- cell gain with vemurafenib: 0.58
- lactate per cell with vemurafenib: 0.49
- call: active

NCOR1
- cell gain with vemurafenib: 0.46
- lactate per cell with vemurafenib: 1.16
- call: inactive

SLC49A4
- cell gain with vemurafenib: 0.95
- lactate per cell with vemurafenib: 0.56
- call: inactive

PRDX1
- cell gain with vemurafenib: 0.54
- lactate per cell with vemurafenib: 1.32
- call: inactive

MID1
- cell gain with vemurafenib: 1.04
- lactate per cell with vemurafenib: 0.82
- call: inactive

ABHD17AP1
- cell gain with vemurafenib: 0.64
- lactate per cell with vemurafenib: 0.54
- call: inactive

CSDE1
- cell gain with vemurafenib: 0.9
- lactate per cell with vemurafenib: 0.46
- call: inactive

HCFC1
- cell gain with vemurafenib: 0.47
- lactate per cell with vemurafenib: 1.61
- call: inactive

IRF2BP1
- cell gain with vemurafenib: 0.94
- lactate per cell with vemurafenib: 0.88
- call: inactive

PTCRA
- cell gain with vemurafenib: 0
- lactate per cell with vemurafenib: 2.35
- call: inactive

UNC45A
- cell gain with vemurafenib: 0.26
- lactate per cell with vemurafenib: 1.22
- call: inactive

NUFIP1
- cell gain with vemurafenib: 0.72
- lactate per cell with vemurafenib: 0.84
- call: inactive

KLHL40
- cell gain with vemurafenib: 0.95
- lactate per cell with vemurafenib: 0.5
- call: inactive

MAN1C1
- cell gain with vemurafenib: 0.64
- lactate per cell with vemurafenib: 1.07
- call: inactive

SDHAF2
- cell gain with vemurafenib: 0.3
- lactate per cell with vemurafenib: 1.9
- call: inactive

NPPA
- cell gain with vemurafenib: 0.09
- lactate per cell with vemurafenib: 1.71
- call: inactive

MAEL
- cell gain with vemurafenib: 1.04
- lactate per cell with vemurafenib: 0.4
- call: inactive

EMG1
- cell gain with vemurafenib: 0.19
- lactate per cell with vemurafenib: 2.91
- call: inactive

CCL4
- cell gain with vemurafenib: 0.26
- lactate per cell with vemurafenib: 1.28
- call: inactive

TOMM34
- cell gain with vemurafenib: 0.38
- lactate per cell with vemurafenib: -0.08
- call: inactive

BAZ2A
- cell gain with vemurafenib: 0.7
- lactate per cell with vemurafenib: 0.93
- call: inactive

SYN1
- cell gain with vemurafenib: 0.88
- lactate per cell with vemurafenib: 0.62
- call: inactive

GSG1
- cell gain with vemurafenib: 0.21
- lactate per cell with vemurafenib: 1.23
- call: inactive

KRTAP1-5
- cell gain with vemurafenib: -0.22
- lactate per cell with vemurafenib: 1.27
- call: inactive

BEND7
- cell gain with vemurafenib: 0.9
- lactate per cell with vemurafenib: 0.4
- call: inactive

MPC1
- cell gain with vemurafenib: 0.62
- lactate per cell with vemurafenib: 1.32
- call: inactive

ICAM1
- cell gain with vemurafenib: 0.13
- lactate per cell with vemurafenib: 2.22
- call: inactive

TBC1D25
- cell gain with vemurafenib: 0.03
- lactate per cell with vemurafenib: 2.51
- call: inactive

PHKA1
- cell gain with vemurafenib: 1.1
- lactate per cell with vemurafenib: 0.7
- call: inactive

VSTM2L
- cell gain with vemurafenib: 0.22
- lactate per cell with vemurafenib: 0.45
- call: active

IFIT3
- cell gain with vemurafenib: 0.8
- lactate per cell with vemurafenib: 1.21
- call: inactive

TMEM207
- cell gain with vemurafenib: 0.68
- lactate per cell with vemurafenib: 0.84
- call: inactive

STX11
- cell gain with vemurafenib: 0.81
- lactate per cell with vemurafenib: 0.9
- call: inactive

KIF26B
- cell gain with vemurafenib: -0.09
- lactate per cell with vemurafenib: 4.06
- call: inactive

NCOA5
- cell gain with vemurafenib: 0.8
- lactate per cell with vemurafenib: 1.7
- call: inactive

KRTAP21-2
- cell gain with vemurafenib: 0.44
- lactate per cell with vemurafenib: 0.98
- call: inactive

H2AB2
- cell gain with vemurafenib: 1.18
- lactate per cell with vemurafenib: 1.02
- call: inactive

CRLS1
- cell gain with vemurafenib: 0.53
- lactate per cell with vemurafenib: 1.34
- call: inactive

GRPEL1
- cell gain with vemurafenib: 0.76
- lactate per cell with vemurafenib: 0.85
- call: inactive

C2CD2
- cell gain with vemurafenib: 0.47
- lactate per cell with vemurafenib: 1.12
- call: inactive

GABRA2
- cell gain with vemurafenib: 0.98
- lactate per cell with vemurafenib: 0.6
- call: inactive

NOTCH4
- cell gain with vemurafenib: 0.66
- lactate per cell with vemurafenib: 0.7
- call: inactive

STATH
- cell gain with vemurafenib: 0.26
- lactate per cell with vemurafenib: 2.62
- call: inactive

GMEB1
- cell gain with vemurafenib: -0.03
- lactate per cell with vemurafenib: 2.58
- call: inactive

FMO5
- cell gain with vemurafenib: 1.08
- lactate per cell with vemurafenib: 1.23
- call: inactive

MTX3
- cell gain with vemurafenib: 0.84
- lactate per cell with vemurafenib: 1.12
- call: inactive

HTR2C
- cell gain with vemurafenib: 0.45
- lactate per cell with vemurafenib: 1.34
- call: inactive

VMAC
- cell gain with vemurafenib: 0.13
- lactate per cell with vemurafenib: 1.4
- call: inactive

Ordered by “cell gain with vemurafenib” (descending): some entries from above
KLHL40
- cell gain with vemurafenib: 0.95
- lactate per cell with vemurafenib: 0.5
- call: inactive

NUFIP1
- cell gain with vemurafenib: 0.72
- lactate per cell with vemurafenib: 0.84
- call: inactive

MAN1C1
- cell gain with vemurafenib: 0.64
- lactate per cell with vemurafenib: 1.07
- call: inactive

SDHAF2
- cell gain with vemurafenib: 0.3
- lactate per cell with vemurafenib: 1.9
- call: inactive

UNC45A
- cell gain with vemurafenib: 0.26
- lactate per cell with vemurafenib: 1.22
- call: inactive
